This is an account of results in the supplement of paper PMC11006884.

Amino acid sequences for entries named in this document (tags omitted). A change or cut given only in a name is not applied to a line headed by its entry.
UniProt O60610, whole entry, looked up: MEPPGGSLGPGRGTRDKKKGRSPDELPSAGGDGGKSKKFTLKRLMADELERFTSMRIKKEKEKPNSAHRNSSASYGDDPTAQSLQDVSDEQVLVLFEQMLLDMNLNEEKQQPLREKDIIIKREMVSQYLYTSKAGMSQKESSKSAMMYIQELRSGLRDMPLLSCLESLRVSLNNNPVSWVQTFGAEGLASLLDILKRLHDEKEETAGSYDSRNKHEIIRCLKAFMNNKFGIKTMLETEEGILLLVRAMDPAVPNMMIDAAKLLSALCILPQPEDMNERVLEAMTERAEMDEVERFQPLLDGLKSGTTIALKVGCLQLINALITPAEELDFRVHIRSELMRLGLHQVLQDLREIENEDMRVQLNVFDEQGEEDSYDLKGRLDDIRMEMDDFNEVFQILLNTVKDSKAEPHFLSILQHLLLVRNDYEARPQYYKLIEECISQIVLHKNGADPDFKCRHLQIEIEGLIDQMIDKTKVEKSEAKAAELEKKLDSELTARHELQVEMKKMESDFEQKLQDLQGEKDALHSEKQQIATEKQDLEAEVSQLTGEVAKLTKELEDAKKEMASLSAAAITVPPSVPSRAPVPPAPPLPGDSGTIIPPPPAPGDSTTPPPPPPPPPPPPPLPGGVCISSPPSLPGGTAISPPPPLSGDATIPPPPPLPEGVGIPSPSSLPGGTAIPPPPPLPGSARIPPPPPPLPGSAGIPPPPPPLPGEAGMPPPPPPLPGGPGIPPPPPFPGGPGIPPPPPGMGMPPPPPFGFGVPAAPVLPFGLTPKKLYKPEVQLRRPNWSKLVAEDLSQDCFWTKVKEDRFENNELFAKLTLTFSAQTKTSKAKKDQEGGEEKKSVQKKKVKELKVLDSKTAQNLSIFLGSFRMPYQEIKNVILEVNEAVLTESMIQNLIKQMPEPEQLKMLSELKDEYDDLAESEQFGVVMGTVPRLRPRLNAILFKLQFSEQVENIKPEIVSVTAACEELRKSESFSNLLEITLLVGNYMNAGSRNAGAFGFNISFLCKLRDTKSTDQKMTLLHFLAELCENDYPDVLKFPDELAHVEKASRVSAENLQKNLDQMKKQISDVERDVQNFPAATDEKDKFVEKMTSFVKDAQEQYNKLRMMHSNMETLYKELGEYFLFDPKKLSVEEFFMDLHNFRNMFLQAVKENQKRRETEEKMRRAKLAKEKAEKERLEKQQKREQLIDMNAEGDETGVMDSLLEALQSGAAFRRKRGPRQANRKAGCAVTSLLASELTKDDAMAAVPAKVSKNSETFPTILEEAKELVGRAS
UniProt O75251, whole entry: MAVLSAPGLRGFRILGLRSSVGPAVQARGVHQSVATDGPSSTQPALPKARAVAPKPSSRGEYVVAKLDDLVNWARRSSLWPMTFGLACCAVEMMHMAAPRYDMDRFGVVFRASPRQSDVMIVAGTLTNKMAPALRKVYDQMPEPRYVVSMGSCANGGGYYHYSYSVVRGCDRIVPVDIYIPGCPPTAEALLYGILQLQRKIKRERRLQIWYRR
UniProt O75534: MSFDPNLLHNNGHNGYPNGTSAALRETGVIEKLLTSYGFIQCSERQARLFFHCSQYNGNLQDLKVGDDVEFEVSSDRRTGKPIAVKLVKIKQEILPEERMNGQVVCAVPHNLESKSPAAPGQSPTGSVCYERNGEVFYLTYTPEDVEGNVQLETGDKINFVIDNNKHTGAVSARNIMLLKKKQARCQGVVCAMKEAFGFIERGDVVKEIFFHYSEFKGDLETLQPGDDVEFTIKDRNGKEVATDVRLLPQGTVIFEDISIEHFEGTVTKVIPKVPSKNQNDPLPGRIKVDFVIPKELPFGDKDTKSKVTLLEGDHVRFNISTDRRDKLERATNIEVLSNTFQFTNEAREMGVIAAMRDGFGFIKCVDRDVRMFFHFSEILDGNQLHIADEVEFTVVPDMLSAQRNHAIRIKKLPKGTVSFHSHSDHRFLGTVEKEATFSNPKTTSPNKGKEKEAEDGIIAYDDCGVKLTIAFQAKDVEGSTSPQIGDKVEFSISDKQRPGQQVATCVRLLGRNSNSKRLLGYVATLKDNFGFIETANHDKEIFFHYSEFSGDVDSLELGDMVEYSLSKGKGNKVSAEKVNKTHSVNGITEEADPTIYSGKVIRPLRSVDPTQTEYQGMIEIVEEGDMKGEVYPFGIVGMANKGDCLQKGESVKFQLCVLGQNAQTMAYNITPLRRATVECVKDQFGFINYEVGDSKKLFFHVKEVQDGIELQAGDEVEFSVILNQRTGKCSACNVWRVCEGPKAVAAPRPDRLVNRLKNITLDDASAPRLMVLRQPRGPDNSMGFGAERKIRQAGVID
UniProt O75390: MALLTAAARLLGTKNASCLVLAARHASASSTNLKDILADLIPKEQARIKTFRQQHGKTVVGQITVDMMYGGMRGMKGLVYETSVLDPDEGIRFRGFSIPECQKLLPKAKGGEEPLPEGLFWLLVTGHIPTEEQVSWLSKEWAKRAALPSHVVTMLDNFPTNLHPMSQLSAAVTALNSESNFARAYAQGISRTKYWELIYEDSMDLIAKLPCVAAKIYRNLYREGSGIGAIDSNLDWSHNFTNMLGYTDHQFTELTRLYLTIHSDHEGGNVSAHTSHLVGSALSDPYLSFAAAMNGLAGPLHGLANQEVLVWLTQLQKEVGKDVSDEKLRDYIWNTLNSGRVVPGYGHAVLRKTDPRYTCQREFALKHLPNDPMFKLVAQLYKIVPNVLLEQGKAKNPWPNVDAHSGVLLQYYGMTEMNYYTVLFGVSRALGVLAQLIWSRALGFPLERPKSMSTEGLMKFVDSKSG
UniProt O75616: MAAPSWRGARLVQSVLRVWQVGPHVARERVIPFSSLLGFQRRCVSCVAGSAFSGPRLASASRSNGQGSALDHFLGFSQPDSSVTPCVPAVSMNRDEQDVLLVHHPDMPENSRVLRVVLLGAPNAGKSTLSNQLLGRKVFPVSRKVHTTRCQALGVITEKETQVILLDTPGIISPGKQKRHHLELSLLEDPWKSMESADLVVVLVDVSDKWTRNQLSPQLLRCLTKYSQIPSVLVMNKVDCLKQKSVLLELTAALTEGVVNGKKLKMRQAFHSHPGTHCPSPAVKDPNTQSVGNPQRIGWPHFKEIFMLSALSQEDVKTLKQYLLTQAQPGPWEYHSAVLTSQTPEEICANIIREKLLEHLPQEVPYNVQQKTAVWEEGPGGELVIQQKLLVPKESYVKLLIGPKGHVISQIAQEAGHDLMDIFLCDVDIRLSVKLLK
UniProt O43488: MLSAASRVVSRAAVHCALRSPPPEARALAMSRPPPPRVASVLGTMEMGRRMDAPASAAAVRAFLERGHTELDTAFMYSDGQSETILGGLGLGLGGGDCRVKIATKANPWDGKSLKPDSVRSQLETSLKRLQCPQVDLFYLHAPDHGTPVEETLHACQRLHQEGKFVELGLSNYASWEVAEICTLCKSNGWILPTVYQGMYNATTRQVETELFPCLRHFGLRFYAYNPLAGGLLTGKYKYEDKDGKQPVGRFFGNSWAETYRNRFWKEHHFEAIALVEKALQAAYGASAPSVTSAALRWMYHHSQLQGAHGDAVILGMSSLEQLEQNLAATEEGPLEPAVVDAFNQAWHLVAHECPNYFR
UniProt O75821, whole entry, looked up: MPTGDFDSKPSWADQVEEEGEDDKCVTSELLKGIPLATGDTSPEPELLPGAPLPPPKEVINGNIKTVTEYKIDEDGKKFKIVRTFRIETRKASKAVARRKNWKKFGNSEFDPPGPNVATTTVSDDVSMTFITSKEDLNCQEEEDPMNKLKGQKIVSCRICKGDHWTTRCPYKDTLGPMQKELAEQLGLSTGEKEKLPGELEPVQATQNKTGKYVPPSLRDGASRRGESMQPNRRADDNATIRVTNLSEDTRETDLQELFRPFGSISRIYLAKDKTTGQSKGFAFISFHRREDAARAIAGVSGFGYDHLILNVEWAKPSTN
UniProt O60826, whole entry: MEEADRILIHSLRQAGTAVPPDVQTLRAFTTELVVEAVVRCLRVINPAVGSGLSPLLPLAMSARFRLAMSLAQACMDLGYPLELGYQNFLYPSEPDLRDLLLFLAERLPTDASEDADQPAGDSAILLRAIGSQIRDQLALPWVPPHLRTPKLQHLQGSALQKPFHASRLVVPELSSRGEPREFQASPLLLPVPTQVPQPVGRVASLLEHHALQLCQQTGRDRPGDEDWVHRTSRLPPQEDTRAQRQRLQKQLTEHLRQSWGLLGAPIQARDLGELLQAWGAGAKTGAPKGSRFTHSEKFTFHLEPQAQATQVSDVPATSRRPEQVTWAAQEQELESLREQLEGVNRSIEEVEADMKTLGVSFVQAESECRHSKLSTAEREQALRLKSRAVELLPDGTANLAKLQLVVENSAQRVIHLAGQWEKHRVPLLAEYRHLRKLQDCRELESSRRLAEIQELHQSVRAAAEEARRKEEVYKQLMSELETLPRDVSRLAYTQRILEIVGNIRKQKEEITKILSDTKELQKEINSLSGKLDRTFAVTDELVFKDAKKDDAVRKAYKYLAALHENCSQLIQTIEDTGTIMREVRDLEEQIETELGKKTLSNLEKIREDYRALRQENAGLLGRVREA
UniProt O60568: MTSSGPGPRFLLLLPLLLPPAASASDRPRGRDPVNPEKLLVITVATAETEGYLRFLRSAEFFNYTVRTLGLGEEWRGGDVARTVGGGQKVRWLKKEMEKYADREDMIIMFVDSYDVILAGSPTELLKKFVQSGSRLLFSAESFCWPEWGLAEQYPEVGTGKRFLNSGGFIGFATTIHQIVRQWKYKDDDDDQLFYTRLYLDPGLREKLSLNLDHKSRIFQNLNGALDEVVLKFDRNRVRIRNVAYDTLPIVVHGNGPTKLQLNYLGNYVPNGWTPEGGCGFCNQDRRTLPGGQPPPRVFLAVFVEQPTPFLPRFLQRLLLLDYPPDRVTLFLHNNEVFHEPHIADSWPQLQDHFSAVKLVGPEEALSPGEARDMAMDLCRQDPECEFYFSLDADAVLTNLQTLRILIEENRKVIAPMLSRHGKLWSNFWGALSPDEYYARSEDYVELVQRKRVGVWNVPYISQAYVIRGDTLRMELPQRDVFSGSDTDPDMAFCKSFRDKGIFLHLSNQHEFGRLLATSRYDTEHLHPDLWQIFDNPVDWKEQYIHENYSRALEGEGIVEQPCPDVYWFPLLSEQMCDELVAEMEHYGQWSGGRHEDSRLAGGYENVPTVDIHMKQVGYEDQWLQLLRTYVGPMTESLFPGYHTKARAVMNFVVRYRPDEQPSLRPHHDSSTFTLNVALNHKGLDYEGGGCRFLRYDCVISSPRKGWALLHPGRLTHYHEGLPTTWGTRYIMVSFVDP
UniProt O43513: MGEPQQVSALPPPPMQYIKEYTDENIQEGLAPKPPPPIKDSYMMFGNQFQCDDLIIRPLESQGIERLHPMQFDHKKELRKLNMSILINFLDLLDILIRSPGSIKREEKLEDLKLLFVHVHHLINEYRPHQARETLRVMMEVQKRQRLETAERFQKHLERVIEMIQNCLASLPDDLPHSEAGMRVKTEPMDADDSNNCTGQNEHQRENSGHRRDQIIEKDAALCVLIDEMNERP
UniProt O60313: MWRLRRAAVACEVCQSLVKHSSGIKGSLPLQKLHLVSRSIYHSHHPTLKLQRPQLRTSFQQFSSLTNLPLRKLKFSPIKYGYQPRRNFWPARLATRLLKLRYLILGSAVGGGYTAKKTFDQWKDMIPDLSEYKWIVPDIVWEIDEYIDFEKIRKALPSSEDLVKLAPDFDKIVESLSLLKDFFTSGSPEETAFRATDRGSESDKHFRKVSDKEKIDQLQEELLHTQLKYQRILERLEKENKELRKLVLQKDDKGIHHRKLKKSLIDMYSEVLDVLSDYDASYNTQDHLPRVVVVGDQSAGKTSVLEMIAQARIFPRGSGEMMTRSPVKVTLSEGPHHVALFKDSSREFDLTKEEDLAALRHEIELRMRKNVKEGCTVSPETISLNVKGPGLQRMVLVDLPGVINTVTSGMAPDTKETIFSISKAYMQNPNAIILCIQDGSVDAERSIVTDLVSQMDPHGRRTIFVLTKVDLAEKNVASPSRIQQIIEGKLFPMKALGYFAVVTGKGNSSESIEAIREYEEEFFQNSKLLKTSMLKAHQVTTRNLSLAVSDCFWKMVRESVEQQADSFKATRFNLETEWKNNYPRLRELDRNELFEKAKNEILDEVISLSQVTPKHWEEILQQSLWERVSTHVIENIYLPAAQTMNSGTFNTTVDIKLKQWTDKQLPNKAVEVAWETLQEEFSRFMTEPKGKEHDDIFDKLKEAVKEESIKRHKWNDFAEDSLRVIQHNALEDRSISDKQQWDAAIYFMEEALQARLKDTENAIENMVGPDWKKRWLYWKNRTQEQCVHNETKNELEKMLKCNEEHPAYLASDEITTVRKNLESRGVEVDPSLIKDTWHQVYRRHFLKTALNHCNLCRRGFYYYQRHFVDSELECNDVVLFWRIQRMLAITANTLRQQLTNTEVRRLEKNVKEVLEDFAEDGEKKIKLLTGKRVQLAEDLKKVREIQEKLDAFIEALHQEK

This is a selection; strong and weak results do not stand in their true shares. Single values of this set are uncertain.

Compound in this assay: COC(=O)/C=C/c1ccccc1 [methyl cinnamate]
Nature of the assay: log2 ratio of iodoacetamide-alkyne labeling of the cysteine site, DMSO over compound (competition); higher = stronger covalent engagement of the cysteine by the compound, active = 1 or more. The following applies: 500 µM; treatment time 1 h; system: HEK293T cell lysate. The procedure, abridged:
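HEK293T lysate (2 mg/mL) was treated with DMSO or electrophile (500 µM, 1 h, ambient temperature), then iodoacetamide alkyne (1 h), clicked to sCIP-TMT reagents, pooled, trypsin-digested overnight at 37 °C, streptavidin-enriched and acid-eluted. Peptides were run on Orbitrap Eclipse LC-MS/MS with FAIMS and quantified in FragPipe. The log2 competition ratio per cysteine is mean control-channel over mean compound-channel reporter intensity. Duplicate channels and three replicates were used, and cysteines quantified in only one replicate were excluded.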
Consider UniProt O60610_C796, for which the “log2 ratio of iodoacetamide-alkyne labeling” value (“log2 ratio” below) was inactive: -0.0149.

As for NDUFS7 C183 (UniProt O75251), the “log2 ratio” value was inactive: -0.198.

As for FOXO3 C31 (UniProt O43524), the “log2 ratio” value is inactive: 0.0154.

For AKAP8 C351 (UniProt O43823), the “log2 ratio” value was inactive: 0.299.

On to CSDE1 C506 (UniProt O75534), for which the “log2 ratio” value is inactive: 0.371.

Consider CS C211 (UniProt O75390), for which the “log2 ratio” value was inactive: 0.182.

Take ERAL1 C425 (UniProt O75616): the “log2 ratio” value is inactive: 0.181.

In the case of AKR7A2 C214 (UniProt O43488), the “log2 ratio” value is inactive: -0.128.

Consider EIF3G C139 (UniProt O75821), for which the “log2 ratio” value is inactive: 0.337.

CCDC22 C369 (UniProt O60826): the “log2 ratio” value is inactive: 0.326.

As to PLOD3 C494 (UniProt O60568), the “log2 ratio” value was inactive: 0.114.

With MED7 C223 (UniProt O43513), the “log2 ratio” value is inactive: 0.0257.

RECQL4 C208 (UniProt O94761): the “log2 ratio” value was inactive: 0.727.

On to OPA1 C551 (UniProt O60313), for which the “log2 ratio” value was inactive: -0.068.
